PubChem BioAssay AID1259308, NCATS, 2017

Assay: 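Knock-downs that increase output of a recombinant reporter protein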 (primary screen)
Cells: human HEK293 embryonic kidney cells stably expressing firefly luciferase (HEK-CMV-Luc2-Hygro)
Reagent: single siRNA against human genes, 0.8 pmol siRNA per well
Duration: 72 h
Measurement: 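Reporter luminescence and viable-cell signal on separate replicate plates, given as percent of non-targeting control and median/MAD z-scores, plus per-cell luciferase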
Reading the numbers: total luciferase, z-score: higher = more reporter protein produced
Active means: 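Active when the median/MAD z-score for overall luciferase is greater than 3; a gene was taken forward for validation with new siRNAs if at least two of its three siRNAs passed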
Meaning of the calls: active = raised luciferase; inactive = no rise
The whole screen tested about 59,000 reagents; this is a part drawn at random. Of all reagents, about 1,510 (2.6%) were called active. 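Calls use total luciferase alone and ignore viability, so some active siRNAs may act by altering cell number.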 Reagents against one gene are numbered here. Further read-outs or replicates are left out here.

total luciferase, z-score, by gene symbol and reagent
DEFB105A (defensin beta 105A): #1 -0.344 inactive; #2 -1.56 inactive; #3 -0.639 inactive
RPS6KA5 (ribosomal protein S6 kinase A5): #1 -2.49 inactive; #2 -0.582 inactive; #3 0.00878 inactive
CLCF1 (cardiotrophin like cytokine factor 1): #1 -0.612 inactive; #2 -0.0825 inactive; #3 -0.894 inactive
GML (glycosylphosphatidylinositol anchored molecule like): #1 0.504 inactive; #2 -0.292 inactive; #3 -0.0434 inactive
GCGR (glucagon receptor): #1 -0.16 inactive; #2 2.63 inactive; #3 -1.39 inactive
IQCM (IQ motif containing M): #1 2.61 inactive; #2 1.36 inactive; #3 -1.58 inactive
GTSE1 (G2 and S-phase expressed 1): #1 0.364 inactive; #2 -0.443 inactive; #3 -0.517 inactive
SDHCP5 (SDHC pseudogene 5): #1 2.03 inactive; #2 0.619 inactive; #3 1.19 inactive
THOC6 (THO complex subunit 6): #1 -0.439 inactive; #2 -0.861 inactive; #3 -0.0373 inactive
NAGPA: #1 -0.015 inactive; #2 2.63 inactive; #3 -0.69 inactive
CACNG3 (calcium voltage-gated channel auxiliary subunit gamma 3): #1 -0.775 inactive; #2 -0.68 inactive; #3 -0.276 inactive
EIF2AK1 (eukaryotic translation initiation factor 2 alpha kinase 1): #1 -1.39 inactive; #2 1.92 inactive; #3 3.15 active
ITFG2 (integrin alpha FG-GAP repeat containing 2): #1 1.49 inactive; #2 -0.848 inactive; #3 -0.221 inactive

Individual results from above:
NAGPA #1, total luciferase, z-score → -0.015
For “total luciferase, z-score”, SDHCP5 (SDHC pseudogene 5) #1 shows 2.03
